Test results taken from patent US20240352412A1, “METHODS AND SYSTEMS FOR EXTENDED CULTURE OF HUMAN BLASTOIDS TO POST-IMPLANTATION STAGES ON 3D MATRICES” (Washington University, priority 2023, published 2024).
At least one structure is not confirmed: it was looked up by name or label, or the drawing left a doubt.

Test system: WIBR3 OCT4-GFP naïve hPSCs
Assay: Blastoid formation (cavitation) from 5i/L/A naïve hPSCs in Aggrewells
Type: cell-based, human
Conditions: component omitted/removed (Conditions 2-4), D7
Experimental: Naïve hPSCs were dissociated with Accutase for 5 minutes at 37° C. Single cell dissociate naïve stem cells and inactivate accutase enzymes with fibroblast medium. Centrifuge this suspension 1000 rpm for 5 minutes. Remove supernatant and wash once with DMEM/F12, centrifuge 1000 rpm for 5 minutes. Aspirate supernatant and resuspend in 2 mL of 5i/L/A medium. Remove iMEFs from the cell suspension by incubation on gelatin-coated plates for 30-45 minutes at 37° C. 5% CO2. Collect cells and count cells to plate 100,000 cells per 24 well Aggrewell (StemCell Technologies) well. Coat the aggrewells with Anti-adherence solution (StemCell Technologies) for 10 minutes at room temperature. Wash wells once with DMEM/F12, then add 1 mL of 5i/L/A medium. […]
Cavitation rate was determined by counting individual aggregates at 7 days of blastoid growth in at least 3 24-well wells per condition. Tile scan images of the entire well were stitched together and aggregates vs. cavitated aggregates were manually counted in ImageJ. […] Significance determined by a 1-way ANOVA with multiple comparisons. *p<0.05, **p<0.01.
Blastoid size was determined with ImageJ software by drawing a circle around the entire blastoid, and diameters determined by a single line drawn across the widest apparent part of the blastoid (day 7 n=1901; day 8 n=18). […] Significance determined with Welch's t-test, ****p<0.0001.

CN(C)CCOc1ccc(-c2nc(-c3ccncc3)c(-c3ccc4c(c3)CC/C4=N\O)[nH]2)cc1 [SB590885]
rate of cavitation on omission of the component from the blastoid media: without adversely affecting the rate of cavitation
